Test results as given in patent US8198235B2, “Use of GILZ protein expressed in dendritic cells to modulate an antigen-specific immune response” (Assistance Publique-Hopitaux de Paris, priority 2004, dated 2012).
For at least one compound, name, drawing or mass did not settle the structure.

Columns and labels:
Type in all cases: cell-based, human
GILZ gene = test: Quantitative RT-PCR analysis of GILZ gene expression in monocyte derived dendritic cells; conditions: added on fifth day of culture; Dex 10^-7 M, IL-10 100 ng/ml, TGFβ 20 ng/ml; detected before and after CD40L
Experimental: (§1) Immature monocyte derived dendritic cells (iMDDCs) were prepared as described in Palucka et al., J. Immunol., 1998, 160, 4587-4595, apart from minor modifications. Briefly, human monocytes were isolated from the peripheral blood mononucleocell fraction by negative selection, according to the manufacturer's (DYNAL) recommendations. The monocytes (1 to 2×10^5 cells/ml) were cultured for 7 days in the presence of GM-CSF and IL-4 (100 ng/ml and 50 ng/ml, respectively, SCHERING-PLOUGH). The maturation of the dendritic cells (MDDCs) was induced in the presence of CD40L (250 ng/ml; IMMUNEX). Dexamethasone (DEX, SIGMA), recombinant human IL-10 (rhIL-10, DNAX) and TGFβ (R&D) were used at the following respective concentrations: 10^−7 M, 100 ng/ml and 20 ng/ml. For the in vivo experiments, the antigen-presenting cells (APCs) were purified using the monocyte negative selection kit according to the manufacturer's (DYNAL) recommendations.
The expression of the human GILZ gene was analyzed by real time RT-PCR according to the manufacturer's recommendations (Lightcycler™, ROCHE), using the pair of primers described in Berrebi et al. BLOOD, 2003, 101, 729-738 and the human β-actin gene as internal control.

CCL3, CCL5 and CXCL8 = test: Chemokine ELISA in dendritic cell culture supernatant after CD40L; conditions: dendritic cells treated before addition of CD40L
Experimental: as §1
The production of chemokines in the culture supernatant of the dendritic cells was analyzed using ELISA kits (R&D SYSTEMS) according to the manufacturer's instructions.

GILZ protein = test: Intracellular flow cytometry of GILZ protein in dendritic cells; conditions: dendritic cells treated with dexamethasone vs nontreated control cells
[1] = tested on: monocyte derived dendritic cells; test: Dendritic cell phenotype by flow cytometry (CD80, CD83, CD86, B7-H1); conditions: treated D5, CD40L D7, phenotype D9
Experimental: as §1
The dendritic cell phenotype was analyzed by four-color flow cytometry, using the following monoclonal antibodies: phycoerythrin-coupled anti-CD83 (CD83-PE, COULTER); phycoerythrin-coupled anti-CD80 (CD80-PE, BD BIOSCIENCES); anti-B7-H1 (CLINISCIENCES) and phycoerythrin-coupled anti-CD86 (CD86-PE, BD PHARMINGEN). The anti-B7-H1 antibody is detected using a phycoerythrin-coupled secondary antibody (BD PHARMINGEN). […]

## C[C@@H]1C[C@H]2[C@@H]3CCC4=CC(=O)C=C[C@]4(C)[C@@]3(F)[C@@H](O)C[C@]2(C)[C@@]1(O)C(=O)CO [dexamethasone]
GILZ gene
  expression of GILZ (RT-PCR): stimulates the expression of GILZ
CCL3, CCL5 and CXCL8
  CD40L-induced production of the chemokines CCL3, CCL5 and CXCL8: partially inhibited
GILZ protein
  production of the GILZ protein: detected
[1]
  expression of B7-H1: stimulate
  expression of CD80, CD83 and CD86: inhibit
